Measurements taken from the supplement of paper PMC11006884.
The entries are a selection whose mix differs from that of the whole data set.

By UniProt entry, the sequences of proteins in these tests, tags left out. Where a name states a change or a piece, a line headed by the entry shows the natural chain unless it says otherwise.
UniProt P60604: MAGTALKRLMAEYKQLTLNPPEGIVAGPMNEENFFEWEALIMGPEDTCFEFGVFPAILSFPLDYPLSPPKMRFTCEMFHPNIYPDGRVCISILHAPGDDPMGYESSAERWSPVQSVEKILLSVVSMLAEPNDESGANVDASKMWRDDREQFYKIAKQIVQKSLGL
UniProt P55210: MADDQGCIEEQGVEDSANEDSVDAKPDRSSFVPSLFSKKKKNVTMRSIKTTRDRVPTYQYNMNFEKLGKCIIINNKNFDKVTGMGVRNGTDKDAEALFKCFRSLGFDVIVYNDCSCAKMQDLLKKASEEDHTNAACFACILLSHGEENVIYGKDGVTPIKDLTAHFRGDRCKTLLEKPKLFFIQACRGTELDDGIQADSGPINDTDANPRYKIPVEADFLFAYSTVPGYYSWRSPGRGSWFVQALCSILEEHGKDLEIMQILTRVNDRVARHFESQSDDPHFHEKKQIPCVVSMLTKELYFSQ
UniProt P60981: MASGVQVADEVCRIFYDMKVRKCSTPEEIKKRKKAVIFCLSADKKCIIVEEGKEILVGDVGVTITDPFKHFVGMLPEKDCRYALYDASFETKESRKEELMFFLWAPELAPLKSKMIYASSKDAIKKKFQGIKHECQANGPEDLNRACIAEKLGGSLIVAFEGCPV
UniProt P52732: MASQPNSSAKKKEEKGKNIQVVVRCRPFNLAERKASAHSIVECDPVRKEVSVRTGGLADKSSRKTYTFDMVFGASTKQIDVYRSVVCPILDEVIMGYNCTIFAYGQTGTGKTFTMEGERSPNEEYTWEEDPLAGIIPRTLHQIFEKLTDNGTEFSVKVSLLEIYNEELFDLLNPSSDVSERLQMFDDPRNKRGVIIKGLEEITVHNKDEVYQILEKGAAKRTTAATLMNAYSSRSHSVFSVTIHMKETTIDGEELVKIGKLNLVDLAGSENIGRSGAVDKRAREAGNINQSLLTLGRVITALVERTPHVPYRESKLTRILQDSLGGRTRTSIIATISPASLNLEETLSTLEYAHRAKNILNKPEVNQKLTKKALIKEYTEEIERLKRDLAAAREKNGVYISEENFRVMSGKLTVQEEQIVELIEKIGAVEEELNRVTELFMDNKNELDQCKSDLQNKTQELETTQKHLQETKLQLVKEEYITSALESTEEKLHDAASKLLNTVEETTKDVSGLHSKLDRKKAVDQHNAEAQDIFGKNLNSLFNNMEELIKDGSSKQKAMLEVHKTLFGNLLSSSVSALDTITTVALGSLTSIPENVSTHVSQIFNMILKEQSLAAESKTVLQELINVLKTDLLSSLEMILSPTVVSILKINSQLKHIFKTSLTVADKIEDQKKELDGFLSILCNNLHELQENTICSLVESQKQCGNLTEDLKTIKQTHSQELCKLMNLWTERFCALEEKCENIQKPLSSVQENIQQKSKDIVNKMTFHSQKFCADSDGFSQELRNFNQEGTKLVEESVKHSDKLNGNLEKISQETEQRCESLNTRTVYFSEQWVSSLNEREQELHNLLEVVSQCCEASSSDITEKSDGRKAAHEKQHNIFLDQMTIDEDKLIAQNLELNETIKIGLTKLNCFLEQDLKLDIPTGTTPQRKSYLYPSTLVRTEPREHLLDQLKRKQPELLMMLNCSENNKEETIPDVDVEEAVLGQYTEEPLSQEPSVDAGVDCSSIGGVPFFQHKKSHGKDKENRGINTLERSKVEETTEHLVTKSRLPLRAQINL
UniProt P60983, whole entry: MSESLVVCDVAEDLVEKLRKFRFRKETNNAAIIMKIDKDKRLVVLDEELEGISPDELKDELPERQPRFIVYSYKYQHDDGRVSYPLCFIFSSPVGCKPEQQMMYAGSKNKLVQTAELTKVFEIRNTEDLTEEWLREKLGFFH
UniProt P51858: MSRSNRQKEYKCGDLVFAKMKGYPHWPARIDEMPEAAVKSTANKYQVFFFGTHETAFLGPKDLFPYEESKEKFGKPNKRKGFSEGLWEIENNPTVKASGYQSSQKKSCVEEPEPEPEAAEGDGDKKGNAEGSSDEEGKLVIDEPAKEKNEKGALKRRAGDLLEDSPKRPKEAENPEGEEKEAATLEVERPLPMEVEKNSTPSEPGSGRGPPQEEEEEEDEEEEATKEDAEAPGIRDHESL
UniProt P55769: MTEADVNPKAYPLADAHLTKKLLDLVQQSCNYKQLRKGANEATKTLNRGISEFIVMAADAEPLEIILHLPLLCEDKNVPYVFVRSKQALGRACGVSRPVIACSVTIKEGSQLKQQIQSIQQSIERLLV
UniProt P53618: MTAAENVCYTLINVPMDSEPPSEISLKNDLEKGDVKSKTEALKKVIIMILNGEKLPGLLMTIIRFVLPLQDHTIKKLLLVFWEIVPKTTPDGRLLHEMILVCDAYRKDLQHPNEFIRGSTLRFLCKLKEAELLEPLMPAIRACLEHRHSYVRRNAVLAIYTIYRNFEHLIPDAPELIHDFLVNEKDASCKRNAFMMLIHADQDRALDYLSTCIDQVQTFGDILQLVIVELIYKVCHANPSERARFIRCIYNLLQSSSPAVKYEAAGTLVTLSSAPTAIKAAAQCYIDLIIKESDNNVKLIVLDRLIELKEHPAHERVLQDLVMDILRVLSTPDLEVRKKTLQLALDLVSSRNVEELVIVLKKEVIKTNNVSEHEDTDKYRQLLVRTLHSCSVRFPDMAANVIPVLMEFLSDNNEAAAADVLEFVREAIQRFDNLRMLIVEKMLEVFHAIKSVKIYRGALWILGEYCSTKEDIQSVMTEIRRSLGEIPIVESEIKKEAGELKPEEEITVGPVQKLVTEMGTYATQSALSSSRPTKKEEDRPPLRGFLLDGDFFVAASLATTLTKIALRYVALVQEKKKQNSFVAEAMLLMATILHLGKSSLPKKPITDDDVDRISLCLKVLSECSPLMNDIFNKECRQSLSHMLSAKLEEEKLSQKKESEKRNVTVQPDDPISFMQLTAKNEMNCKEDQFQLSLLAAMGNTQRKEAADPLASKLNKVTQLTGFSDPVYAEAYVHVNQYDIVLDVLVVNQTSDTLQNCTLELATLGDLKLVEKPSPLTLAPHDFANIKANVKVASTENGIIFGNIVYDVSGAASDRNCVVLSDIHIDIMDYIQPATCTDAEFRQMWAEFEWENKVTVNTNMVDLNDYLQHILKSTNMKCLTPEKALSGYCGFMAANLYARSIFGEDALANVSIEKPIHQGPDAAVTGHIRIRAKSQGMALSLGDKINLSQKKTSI
UniProt P55072, whole entry, looked up: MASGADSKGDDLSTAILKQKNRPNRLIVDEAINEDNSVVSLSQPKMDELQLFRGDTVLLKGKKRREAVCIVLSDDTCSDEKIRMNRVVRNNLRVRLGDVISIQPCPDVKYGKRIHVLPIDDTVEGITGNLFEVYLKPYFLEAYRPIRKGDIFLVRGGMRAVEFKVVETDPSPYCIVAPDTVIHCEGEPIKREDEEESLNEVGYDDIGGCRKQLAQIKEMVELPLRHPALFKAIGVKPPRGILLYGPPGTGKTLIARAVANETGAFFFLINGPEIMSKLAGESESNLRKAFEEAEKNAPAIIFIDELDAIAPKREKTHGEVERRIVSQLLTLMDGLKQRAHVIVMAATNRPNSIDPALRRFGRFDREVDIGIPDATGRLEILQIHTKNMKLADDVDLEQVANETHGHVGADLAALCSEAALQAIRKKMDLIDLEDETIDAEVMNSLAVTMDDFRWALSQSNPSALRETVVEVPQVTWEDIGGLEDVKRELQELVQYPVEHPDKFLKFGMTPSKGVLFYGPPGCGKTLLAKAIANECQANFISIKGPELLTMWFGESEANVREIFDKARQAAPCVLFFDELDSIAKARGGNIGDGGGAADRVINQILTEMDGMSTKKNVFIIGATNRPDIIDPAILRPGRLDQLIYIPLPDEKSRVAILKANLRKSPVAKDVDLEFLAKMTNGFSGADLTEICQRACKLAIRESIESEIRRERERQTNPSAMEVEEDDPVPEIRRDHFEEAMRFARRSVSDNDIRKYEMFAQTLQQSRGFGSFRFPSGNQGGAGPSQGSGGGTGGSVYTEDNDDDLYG
UniProt P53396: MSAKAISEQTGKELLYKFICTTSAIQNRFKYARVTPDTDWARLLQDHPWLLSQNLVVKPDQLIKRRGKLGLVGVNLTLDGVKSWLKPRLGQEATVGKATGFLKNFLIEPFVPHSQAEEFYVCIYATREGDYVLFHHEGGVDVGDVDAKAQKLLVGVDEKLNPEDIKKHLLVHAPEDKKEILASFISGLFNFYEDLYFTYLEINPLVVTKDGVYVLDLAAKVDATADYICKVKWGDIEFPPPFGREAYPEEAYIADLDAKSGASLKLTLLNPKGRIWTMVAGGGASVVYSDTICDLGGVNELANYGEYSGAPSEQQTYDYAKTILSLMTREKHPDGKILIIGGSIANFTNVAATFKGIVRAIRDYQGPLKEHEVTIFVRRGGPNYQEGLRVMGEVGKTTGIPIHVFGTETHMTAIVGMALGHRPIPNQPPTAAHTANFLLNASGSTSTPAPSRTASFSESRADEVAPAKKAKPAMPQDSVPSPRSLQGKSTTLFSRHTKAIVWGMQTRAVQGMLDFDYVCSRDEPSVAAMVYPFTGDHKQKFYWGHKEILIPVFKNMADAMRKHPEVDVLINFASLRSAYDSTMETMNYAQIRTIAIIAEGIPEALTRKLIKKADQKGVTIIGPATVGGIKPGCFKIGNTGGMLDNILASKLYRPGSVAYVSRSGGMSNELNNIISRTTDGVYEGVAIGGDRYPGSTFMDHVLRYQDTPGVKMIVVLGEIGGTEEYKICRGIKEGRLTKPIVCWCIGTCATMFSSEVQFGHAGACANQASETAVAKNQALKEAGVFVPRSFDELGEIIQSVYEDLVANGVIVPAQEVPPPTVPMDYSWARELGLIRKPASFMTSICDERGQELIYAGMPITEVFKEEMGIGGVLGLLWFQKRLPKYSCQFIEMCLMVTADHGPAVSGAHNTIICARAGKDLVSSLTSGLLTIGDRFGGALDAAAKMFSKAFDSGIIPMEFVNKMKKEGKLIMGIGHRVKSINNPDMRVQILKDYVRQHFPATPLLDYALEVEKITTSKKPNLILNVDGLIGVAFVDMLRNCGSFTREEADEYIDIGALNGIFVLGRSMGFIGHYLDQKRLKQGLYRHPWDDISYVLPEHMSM
UniProt P55211: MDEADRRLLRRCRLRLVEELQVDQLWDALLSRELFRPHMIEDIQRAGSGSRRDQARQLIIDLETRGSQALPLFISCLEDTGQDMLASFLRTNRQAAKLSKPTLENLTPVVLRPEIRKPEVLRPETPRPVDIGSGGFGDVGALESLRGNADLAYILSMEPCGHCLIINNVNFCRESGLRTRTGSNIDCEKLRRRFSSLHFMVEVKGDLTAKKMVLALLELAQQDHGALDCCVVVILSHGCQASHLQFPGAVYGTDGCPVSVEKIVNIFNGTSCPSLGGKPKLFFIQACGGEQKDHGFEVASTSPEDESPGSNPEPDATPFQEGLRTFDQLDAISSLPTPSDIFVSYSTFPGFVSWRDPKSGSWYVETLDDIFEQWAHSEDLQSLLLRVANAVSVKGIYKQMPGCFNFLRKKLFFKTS
UniProt P53701: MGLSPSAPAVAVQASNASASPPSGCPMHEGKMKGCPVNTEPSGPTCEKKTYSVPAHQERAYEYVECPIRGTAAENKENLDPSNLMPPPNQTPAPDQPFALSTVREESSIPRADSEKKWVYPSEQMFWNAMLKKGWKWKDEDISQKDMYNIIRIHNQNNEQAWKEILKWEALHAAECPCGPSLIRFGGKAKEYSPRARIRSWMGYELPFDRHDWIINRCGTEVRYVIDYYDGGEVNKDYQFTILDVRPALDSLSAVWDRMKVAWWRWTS
UniProt P55884, whole entry, looked up: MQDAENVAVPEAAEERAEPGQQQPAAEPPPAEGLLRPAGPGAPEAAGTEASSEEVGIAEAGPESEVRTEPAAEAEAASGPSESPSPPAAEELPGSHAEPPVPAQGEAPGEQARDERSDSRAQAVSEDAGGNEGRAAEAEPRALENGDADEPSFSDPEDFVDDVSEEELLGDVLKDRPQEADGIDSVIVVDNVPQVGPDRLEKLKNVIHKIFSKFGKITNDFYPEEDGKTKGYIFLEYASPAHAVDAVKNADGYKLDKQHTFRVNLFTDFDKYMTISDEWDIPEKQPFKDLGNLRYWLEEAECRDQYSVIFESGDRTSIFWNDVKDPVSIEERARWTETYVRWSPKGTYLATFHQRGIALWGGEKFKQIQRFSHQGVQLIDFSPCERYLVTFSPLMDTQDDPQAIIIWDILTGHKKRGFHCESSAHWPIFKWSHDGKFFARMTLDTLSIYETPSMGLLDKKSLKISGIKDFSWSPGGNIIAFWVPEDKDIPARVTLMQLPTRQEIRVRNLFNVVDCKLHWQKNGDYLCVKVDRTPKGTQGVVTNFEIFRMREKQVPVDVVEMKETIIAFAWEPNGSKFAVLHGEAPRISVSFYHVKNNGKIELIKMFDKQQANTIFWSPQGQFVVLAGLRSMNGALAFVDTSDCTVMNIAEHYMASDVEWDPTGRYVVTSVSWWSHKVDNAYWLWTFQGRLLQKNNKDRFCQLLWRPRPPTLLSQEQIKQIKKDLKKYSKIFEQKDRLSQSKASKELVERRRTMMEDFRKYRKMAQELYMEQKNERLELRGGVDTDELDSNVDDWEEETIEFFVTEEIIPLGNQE

Compound: COC(=O)C#Cc1ccccc1 [methyl 3-phenylpropiolate]
Assay: log2 ratio of iodoacetamide-alkyne labeling of the cysteine site, DMSO over compound (competition); higher = stronger covalent engagement of the cysteine by the compound, active = 1 or more
Details: 500 µM; treatment time 1 h; system: HEK293T cell lysate
Summary of the method: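 The log2 competition ratio per cysteine is defined as mean reporter intensity in control channels over mean reporter intensity in compound channels. Lysate from HEK293T cells (2 mg/mL) received electrophile (500 µM) or vehicle for 1 h at ambient temperature, followed by iodoacetamide alkyne for 1 h. Samples were clicked to sCIP-TMT reagents, pooled, trypsin-digested overnight at 37 °C, streptavidin-enriched, acid-eluted and run on Orbitrap Eclipse LC-MS/MS with FAIMS, with quantification in FragPipe. Three replicates with duplicate channels were used, and any cysteine quantified in only one replicate was excluded.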

log2 ratio of iodoacetamide-alkyne labeling, inactive:
UniProt P60604_C89 0.246
CORO7 C505 (UniProt P57737) 0.469
EIF6 C11 (UniProt P56537) 0.103
AP3M2 C29 (UniProt P53677) 0.485
RPS3A C111 (UniProt P61247) 0.563
RRP1 C274 (UniProt P56182) 0.423
CASP7 C116 (UniProt P55210) 0.552
DSTN C163 (UniProt P60981) 0.149
PSMD4 C37 (UniProt P55036) 0.105
KIF11 C911 (UniProt P52732) -0.00949
GMFB C8 (UniProt P60983) 0.156
HDGF C12 (UniProt P51858) 0.127
KPNA1 C210 (UniProt P52294) 0.586
SUOX C310 (UniProt P51687) 0.0591
ACTR3 C8 (UniProt P61158) 0.0125
SEC24C C886 (UniProt P53992) -0.483
SEC13 C245 (UniProt P55735) -0.125
ACTR3 C12 (UniProt P61158) 0.212
UniProt P55769_C93 0.185
UniProt P60709_C217 0.0537
UniProt P61221_C88 0.142
UniProt P61927_C37 -0.0334
UniProt P62241_C72 -0.0565
COPB1 C684 (UniProt P53618) 0.337
UniProt P55072_C572 -0.137
COPB1 C284 (UniProt P53618) 0.137
COPB1 C616 (UniProt P53618) 0.0621
ACLY C20 (UniProt P53396) 0.357
UniProt P61619_C13 -0.166
POLG C647 (UniProt P54098) 0.315
UniProt P55769_C73 -0.0299
CASP9 C287 (UniProt P55211) 0.994
HCCS C46 (UniProt P53701) 0.886
EIF3B C700 (UniProt P55884) 0.436
RBM5 C766 (UniProt P52756) 0.594
RARS C32 (UniProt P54136) 0.605

Taken from the entries so far for reference:
log2 ratio of iodoacetamide-alkyne labeling, inactive:
EIF3B C700 (UniProt P55884) 0.436
RBM5 C766 (UniProt P52756) 0.594

Next part.

log2 ratio of iodoacetamide-alkyne labeling, active:
SUCLG1 C181 (UniProt P53597) 1.72
